Measurements reported in the supplement of paper PMC10849652.
This is one part of the list.

Sequences of proteins named here, by UniProt entry; tags and fusion partners are left off. A change or cut given only in a name is not applied to a line headed by its entry.
UniProt P61956, whole entry, looked up: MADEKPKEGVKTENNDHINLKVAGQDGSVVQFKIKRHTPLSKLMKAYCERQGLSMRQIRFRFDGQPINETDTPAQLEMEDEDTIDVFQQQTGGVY
UniProt Q1ZZU3: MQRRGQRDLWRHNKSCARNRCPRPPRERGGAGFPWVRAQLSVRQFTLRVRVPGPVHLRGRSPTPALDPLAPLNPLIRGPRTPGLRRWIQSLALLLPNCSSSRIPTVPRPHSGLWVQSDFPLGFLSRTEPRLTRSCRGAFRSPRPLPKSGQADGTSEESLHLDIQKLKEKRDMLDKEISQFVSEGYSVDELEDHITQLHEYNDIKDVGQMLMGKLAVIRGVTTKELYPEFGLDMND
UniProt Q15208: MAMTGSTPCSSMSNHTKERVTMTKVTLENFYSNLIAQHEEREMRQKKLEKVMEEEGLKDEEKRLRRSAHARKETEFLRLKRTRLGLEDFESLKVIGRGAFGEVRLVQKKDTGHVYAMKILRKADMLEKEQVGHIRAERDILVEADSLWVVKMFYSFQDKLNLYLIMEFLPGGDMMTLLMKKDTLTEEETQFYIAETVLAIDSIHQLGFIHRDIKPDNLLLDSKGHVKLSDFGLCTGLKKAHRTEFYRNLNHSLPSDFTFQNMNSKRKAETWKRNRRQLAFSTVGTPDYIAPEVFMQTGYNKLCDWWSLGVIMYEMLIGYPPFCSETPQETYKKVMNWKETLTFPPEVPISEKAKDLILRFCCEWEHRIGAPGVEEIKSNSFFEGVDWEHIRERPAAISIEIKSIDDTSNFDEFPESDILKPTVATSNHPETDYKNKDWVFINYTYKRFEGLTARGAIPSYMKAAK
UniProt Q92797: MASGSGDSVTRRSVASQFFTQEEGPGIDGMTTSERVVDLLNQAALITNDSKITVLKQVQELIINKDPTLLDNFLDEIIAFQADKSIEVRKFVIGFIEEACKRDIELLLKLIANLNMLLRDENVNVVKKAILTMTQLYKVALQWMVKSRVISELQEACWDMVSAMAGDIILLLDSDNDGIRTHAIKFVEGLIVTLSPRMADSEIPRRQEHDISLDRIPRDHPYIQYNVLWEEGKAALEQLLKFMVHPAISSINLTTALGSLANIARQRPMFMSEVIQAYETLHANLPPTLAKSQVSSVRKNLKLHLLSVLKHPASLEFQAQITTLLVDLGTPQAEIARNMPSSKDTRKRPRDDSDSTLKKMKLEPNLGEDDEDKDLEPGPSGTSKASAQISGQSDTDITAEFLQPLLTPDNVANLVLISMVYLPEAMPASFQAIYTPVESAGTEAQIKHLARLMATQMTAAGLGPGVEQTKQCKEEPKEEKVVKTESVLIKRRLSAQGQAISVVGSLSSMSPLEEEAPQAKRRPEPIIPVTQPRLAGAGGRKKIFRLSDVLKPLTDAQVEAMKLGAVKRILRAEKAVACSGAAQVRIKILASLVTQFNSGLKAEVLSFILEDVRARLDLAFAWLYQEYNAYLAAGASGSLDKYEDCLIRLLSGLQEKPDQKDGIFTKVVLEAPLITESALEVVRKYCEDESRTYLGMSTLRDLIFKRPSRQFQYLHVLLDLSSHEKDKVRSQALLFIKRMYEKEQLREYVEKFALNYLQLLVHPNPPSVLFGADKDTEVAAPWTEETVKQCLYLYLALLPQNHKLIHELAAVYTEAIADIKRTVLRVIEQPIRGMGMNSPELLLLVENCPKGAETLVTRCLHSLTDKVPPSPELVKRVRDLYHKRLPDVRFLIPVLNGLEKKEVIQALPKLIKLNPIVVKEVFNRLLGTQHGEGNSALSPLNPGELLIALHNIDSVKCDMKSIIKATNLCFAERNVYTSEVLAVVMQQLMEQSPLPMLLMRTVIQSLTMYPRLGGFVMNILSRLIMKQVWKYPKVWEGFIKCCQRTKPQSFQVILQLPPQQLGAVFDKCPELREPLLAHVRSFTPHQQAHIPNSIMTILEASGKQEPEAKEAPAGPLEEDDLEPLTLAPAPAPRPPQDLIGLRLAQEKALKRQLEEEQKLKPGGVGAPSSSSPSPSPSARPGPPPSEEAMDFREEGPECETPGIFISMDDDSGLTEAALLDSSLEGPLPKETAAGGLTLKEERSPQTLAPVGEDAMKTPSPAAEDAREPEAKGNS
UniProt Q16514: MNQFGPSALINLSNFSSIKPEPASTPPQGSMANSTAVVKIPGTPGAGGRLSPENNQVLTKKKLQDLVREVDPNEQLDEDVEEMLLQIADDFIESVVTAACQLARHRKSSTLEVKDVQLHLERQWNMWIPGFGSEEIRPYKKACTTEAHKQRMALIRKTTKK
UniProt Q13277: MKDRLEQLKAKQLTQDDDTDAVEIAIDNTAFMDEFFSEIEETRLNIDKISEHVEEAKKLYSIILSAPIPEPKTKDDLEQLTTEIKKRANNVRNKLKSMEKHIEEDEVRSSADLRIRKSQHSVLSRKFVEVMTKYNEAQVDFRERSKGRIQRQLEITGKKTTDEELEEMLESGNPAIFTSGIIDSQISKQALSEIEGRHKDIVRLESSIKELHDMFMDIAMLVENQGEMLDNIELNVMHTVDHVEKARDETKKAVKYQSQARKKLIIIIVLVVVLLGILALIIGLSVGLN
UniProt Q15542, whole entry, looked up: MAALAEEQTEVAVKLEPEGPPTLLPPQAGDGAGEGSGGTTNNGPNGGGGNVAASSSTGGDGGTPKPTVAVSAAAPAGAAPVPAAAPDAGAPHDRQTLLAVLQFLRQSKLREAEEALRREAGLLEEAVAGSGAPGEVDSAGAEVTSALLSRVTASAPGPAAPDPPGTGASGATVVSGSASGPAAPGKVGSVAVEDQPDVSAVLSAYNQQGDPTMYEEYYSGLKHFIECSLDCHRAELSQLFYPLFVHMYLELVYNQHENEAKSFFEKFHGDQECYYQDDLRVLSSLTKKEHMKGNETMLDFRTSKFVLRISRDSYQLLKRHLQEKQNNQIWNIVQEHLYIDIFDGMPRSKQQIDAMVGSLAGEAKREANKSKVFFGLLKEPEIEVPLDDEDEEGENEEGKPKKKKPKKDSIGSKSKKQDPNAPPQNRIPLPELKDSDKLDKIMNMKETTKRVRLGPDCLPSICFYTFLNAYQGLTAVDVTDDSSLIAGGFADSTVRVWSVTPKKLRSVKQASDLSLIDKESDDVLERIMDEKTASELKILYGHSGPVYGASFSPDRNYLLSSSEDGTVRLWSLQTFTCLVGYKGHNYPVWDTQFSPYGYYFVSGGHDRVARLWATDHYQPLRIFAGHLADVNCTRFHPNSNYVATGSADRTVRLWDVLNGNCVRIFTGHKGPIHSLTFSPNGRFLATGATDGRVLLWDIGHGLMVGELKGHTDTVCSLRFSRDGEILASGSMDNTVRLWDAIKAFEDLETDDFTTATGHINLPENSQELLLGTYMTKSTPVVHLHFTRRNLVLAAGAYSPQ
UniProt Q9UJZ1: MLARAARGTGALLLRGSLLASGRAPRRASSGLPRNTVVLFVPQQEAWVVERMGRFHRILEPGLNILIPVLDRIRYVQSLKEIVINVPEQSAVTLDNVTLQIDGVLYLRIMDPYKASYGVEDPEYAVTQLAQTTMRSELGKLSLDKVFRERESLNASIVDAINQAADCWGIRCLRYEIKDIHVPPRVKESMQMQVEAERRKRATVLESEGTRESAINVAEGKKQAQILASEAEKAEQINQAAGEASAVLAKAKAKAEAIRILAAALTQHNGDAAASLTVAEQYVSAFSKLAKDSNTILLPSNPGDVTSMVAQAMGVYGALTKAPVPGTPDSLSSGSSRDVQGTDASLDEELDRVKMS
UniProt O94864: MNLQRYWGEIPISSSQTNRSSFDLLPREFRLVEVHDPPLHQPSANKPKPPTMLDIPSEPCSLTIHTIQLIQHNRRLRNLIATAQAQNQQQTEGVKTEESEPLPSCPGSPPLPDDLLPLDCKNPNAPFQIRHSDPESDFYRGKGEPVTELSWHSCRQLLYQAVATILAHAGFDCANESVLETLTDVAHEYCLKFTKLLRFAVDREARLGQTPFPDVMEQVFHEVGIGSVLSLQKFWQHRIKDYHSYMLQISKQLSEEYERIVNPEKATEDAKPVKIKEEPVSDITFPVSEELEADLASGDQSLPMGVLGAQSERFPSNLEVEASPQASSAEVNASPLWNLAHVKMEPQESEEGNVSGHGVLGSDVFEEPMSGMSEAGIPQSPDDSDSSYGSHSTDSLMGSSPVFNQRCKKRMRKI
UniProt P61764, whole entry, looked up: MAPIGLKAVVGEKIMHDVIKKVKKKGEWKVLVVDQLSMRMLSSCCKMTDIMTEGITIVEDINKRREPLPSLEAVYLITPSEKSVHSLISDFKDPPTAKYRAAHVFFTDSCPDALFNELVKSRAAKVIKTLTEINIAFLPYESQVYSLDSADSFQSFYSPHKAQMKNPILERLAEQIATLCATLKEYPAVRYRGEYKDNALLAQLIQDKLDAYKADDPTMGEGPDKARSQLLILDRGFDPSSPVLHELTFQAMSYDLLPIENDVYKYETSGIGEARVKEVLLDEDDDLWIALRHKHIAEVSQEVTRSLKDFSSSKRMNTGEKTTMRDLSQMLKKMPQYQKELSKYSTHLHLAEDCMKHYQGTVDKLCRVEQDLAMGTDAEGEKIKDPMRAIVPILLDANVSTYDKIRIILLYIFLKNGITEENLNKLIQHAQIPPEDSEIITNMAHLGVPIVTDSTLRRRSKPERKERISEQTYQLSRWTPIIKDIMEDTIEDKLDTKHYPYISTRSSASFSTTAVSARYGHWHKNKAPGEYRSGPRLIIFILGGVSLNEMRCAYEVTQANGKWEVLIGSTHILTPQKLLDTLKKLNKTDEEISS
UniProt Q13033: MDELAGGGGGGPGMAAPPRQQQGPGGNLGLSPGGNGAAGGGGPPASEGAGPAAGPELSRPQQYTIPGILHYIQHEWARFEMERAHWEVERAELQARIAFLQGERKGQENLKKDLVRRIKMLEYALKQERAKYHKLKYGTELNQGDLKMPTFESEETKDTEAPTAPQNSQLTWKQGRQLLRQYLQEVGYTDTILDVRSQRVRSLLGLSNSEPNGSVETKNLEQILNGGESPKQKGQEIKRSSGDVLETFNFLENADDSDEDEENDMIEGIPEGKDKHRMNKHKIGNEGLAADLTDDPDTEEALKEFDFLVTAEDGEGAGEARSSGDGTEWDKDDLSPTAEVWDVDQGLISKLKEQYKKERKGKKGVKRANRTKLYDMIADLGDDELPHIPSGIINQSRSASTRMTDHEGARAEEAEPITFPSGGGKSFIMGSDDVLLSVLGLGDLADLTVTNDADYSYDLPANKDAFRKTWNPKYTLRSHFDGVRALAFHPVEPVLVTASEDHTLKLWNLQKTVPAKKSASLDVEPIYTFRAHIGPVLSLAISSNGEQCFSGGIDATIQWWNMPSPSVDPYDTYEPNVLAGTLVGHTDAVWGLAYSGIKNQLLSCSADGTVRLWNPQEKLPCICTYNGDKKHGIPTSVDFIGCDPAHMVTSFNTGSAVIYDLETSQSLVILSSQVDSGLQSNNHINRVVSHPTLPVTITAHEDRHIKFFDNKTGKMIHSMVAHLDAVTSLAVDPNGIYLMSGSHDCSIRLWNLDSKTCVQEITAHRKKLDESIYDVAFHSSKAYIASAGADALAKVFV
UniProt Q8NFX7: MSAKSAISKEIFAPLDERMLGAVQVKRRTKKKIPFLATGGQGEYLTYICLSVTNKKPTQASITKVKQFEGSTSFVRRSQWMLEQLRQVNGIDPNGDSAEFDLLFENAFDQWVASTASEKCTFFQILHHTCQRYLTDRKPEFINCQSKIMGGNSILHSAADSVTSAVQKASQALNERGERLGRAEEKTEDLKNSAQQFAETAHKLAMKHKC
UniProt Q8TDR2: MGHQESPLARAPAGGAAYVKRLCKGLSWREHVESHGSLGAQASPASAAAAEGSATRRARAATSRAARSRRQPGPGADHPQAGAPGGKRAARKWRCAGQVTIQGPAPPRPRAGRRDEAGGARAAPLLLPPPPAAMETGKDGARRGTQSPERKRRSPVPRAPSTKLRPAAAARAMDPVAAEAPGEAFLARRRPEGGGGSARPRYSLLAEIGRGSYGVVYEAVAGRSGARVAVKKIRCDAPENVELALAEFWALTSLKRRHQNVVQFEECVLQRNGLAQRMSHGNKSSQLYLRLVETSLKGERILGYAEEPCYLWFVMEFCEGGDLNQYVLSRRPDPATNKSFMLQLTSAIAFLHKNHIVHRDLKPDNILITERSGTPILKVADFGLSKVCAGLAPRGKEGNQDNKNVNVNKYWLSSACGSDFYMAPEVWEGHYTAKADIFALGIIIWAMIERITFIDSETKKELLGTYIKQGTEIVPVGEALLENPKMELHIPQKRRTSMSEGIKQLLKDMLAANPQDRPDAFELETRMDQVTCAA
UniProt P27105: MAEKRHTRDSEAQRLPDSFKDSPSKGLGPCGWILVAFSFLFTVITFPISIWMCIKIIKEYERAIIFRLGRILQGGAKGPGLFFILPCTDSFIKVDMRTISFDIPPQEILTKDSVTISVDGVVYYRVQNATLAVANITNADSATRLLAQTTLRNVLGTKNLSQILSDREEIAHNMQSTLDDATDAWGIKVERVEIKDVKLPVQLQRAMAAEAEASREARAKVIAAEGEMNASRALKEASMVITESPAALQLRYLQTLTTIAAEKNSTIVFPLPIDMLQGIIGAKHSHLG

What was measured:
Assay in all cases: log2 fold change, soluble protein after heating vs DMSO (PISA); higher = thermal stabilisation; K562 lysate, 10 uM; active = over 0.2 and 3.5 SD of the protein, either way, in both replicates (recomputed)
[1] = compound: C1=CC=C(C=C1)[C@H](COC2=CC3=C(C=C2)NC(=O)N3)NC(=O)C4=CC=CN(C4=O)CC5=CC(=C(C=C5)F)F
In short: (§1)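 Pellets of K562 cells were dounce-homogenised in PBS pH 7.4 with 1 mM MgCl2, and the crude extract was held at 1 mg/mL protein for a 30 min treatment with 10 μM compound. Aliquots were heated for 3 min over 48°C-58°C and pooled before NP-40 was added to 0.5% at 4°C. The supernatant from 21,000xg for 90 min was quantified by TMTpro 16plex LC-MS/MS with channel sums equalised. Values are reported from duplicates as log-two fold change in thermal stability relative to solvent controls.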

[2] = compound: CC1=C(SC2=C1C(=N[C@H](C3=NN=C(N32)C)CC(=O)N)C4=CC=C(C=C4)Cl)C
In short: as §1

[3] = compound: CC1=C2C(=CC=C1)N=C(N(C2=O)C3=CC=CC=C3C)CN4C=NC5=C(N=CN=C54)N
In short: as §1

[4] = compound: Cc1sc2c(c1C)C(c1ccc(Cl)cc1)=N[C@@H](CC(=O)OC(C)(C)C)c1nnc(C)n1-2
In short: as §1

[5] = compound: c1ccc([C@@H]2C[C@H]2NC2CCNCC2)cc1
In short: as §1

Measured: log2 fold change

SUMO2 (UniProt P61956)
inactive: [1] 0.094 | [2] -0.13 | [3] -0.019 | [4] -0.09 | [5] -0.017

SWI5 (UniProt Q1ZZU3)
inactive: [1] 0.078 | [2] 0.016 | [3] 0.064 | [4] 0.072 | [5] -0.024

STK38 (UniProt Q15208)
inactive: [1] -0.089 | [2] -0.02 | [3] -0.014 | [4] -0.012 | [5] -0.066

SYMPK (UniProt Q92797)
inactive: [1] -0.033 | [2] 0.015 | [3] 0.005 | [4] -0.012 | [5] 0.038

TAF12 (UniProt Q16514)
inactive: [1] 0 | [2] -0.017 | [3] -0.023 | [4] -0.041 | [5] -0.043

TACC3 (UniProt Q9Y6A5)
inactive: [1] 0.009 | [2] 0.008 | [3] -0.022 | [4] 0 | [5] -0.019

STX3 (UniProt Q13277)
inactive: [1] 0.039 | [2] -0.021 | [3] 0.02 | [4] -0.109 | [5] -0.01

TACO1 (UniProt Q9BSH4)
inactive: [1] 0.002 | [2] 0.058 | [3] 0.024 | [4] -0.023 | [5] 0.019

TAF5 (UniProt Q15542)
inactive: [1] 0.044 | [2] 0.118 | [3] -0.04 | [4] 0.073 | [5] 0.06

STOML2 (UniProt Q9UJZ1)
inactive: [1] -0.008 | [2] 0.004 | [3] -0.027 | [4] -0.025 | [5] -0.008

STK39 (UniProt Q9UEW8)
inactive: [1] 0.011 | [2] -0.056 | [3] 0.049 | [4] 0 | [5] 0.078

SUPT7L (UniProt O94864)
inactive: [1] 0.047 | [2] 0.028 | [3] -0.013 | [4] -0.125 | [5] 0

STXBP4 (UniProt Q6ZWJ1)
inactive: [1] -0.036 | [2] 0.013 | [3] 0.04 | [4] 0.06 | [5] 0.047

SUCLA2 (UniProt Q9P2R7)
inactive: [1] -0.005 | [2] -0.015 | [3] 0.051 | [4] 0.002 | [5] -0.013

STXBP1 (UniProt P61764)
inactive: [1] 0.007 | [2] 0.016 | [3] -0.02 | [4] -0.011 | [5] 0.017

STRN3 (UniProt Q13033)
inactive: [1] -0.011 | [2] -0.046 | [3] -0.076 | [4] 0.019 | [5] 0.109

STK3 isoform 2 (UniProt Q13188)
inactive: [1] -0.031 | [2] -0.042 | [3] -0.108 | [4] 0.01 | [5] -0.073

STK24 (UniProt B4DR80)
inactive: [1] -0.025 | [2] 0.003 | [3] -0.041 | [4] -0.019 | [5] -0.055

SUB1 (UniProt P53999)
inactive: [1] 0.014 | [2] 0 | [3] -0.004 | [4] 0 | [5] -0.071

TADA2B (UniProt Q86TJ2)
inactive: [3] 0.075 | [4] -0.017

STXBP6 (UniProt Q8NFX7)
inactive: [1] 0.103 | [2] -0.095 | [5] 0.06

2 consecutive entries already listed:
SUB1 (UniProt P53999)
inactive: [1] 0.014 | [2] 0 | [3] -0.004 | [4] 0 | [5] -0.071

TADA2B (UniProt Q86TJ2)
inactive: [3] 0.075 | [4] -0.017

(list continues)

STK35 (UniProt Q8TDR2)
inactive: [1] 0.045 | [2] 0.044 | [4] -0.081 | [5] -0.121

STOM (UniProt P27105)
inactive: [1] 0.008 | [2] 0.043 | [3] -0.011 | [4] -0.078 | [5] -0.061
